Experimental data: PubChem BioAssay AID504774 (Drosophila RNAi Screening Center, 2011)
In all, the deposit lists about 23,000 reagents; shown is an unselected part of those with a known target gene and a result. 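Values are quantile-normalised luminescence on an arbitrary scale; higher means more cells surviving MMS.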 A plus sign joins genes that one reagent is predicted to hit. Further read-outs or replicates are left out here. Reagent sequences are not shown.

- Aim: 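Knock-downs that shift viability of MMS-exposed cells relative to untreated ones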 (primary screen)
- System: Drosophila Kc167 cells
- Reagents: long dsRNA against Drosophila genes, about 0.25 µg dsRNA per well
- Time to read-out: about 6 days: 3 days knock-down, then 3 days with or without MMS
- Challenge: methyl methanesulphonate 0.004% (w/v) for 3 days after knock-down
- Read-out: 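Viability in wells given MMS, read as ATP luminescence, normalised by quantiles plate by plate and averaged across replicates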
- Direction: mean viability with MMS and viability with MMS: higher = more surviving cells after MMS

gene knocked down | amplicon | mean viability with MMS | viability with MMS, replicate 1
CG17028 | DRSC10239 | 3.59e6 | 4.12e6
vig | DRSC03630 | 3.62e6 | 4.03e6
vig | DRSC03631 | 3.54e6 | 4.12e6
vig | DRSC21672 | 3.60e6 | 4.08e6
CG17362 | DRSC10267 | 3.34e6 | 3.80e6
Ppn | DRSC15328 | 3.65e6 | 4.10e6
Asx | DRSC05924 | 2.80e6 | 3.26e6
mkg-p + Tpt | DRSC10777 | 3.57e6 | 3.99e6
spn-A | DRSC16812 | 3.34e6 | 3.85e6
Bx | DRSC19350 | 3.19e6 | 3.55e6
Bx | DRSC23048 | 3.10e6 | 3.51e6
CG8813 | DRSC00706 | 3.68e6 | 4.17e6
Hmu | DRSC16705 | 3.54e6 | 4.09e6
Cpr60D | DRSC04492 | 3.47e6 | 4.08e6
CG7080 | DRSC16193 | 3.60e6 | 4.07e6
CG7544 | DRSC07023 | 2.02e6 | 4.13e6
CG10417 | DRSC04846 | 3.19e6 | 4.04e6
CG34316 | DRSC13080 | 3.62e6 | 4.06e6
GlnRS | DRSC14140 | 3.34e6 | 3.81e6
az2 | DRSC07580 | 3.15e6 | 2.56e6
CG17770 + Acam | DRSC14110 | 3.60e6 | 4.03e6
CG17770 + Acam | DRSC15264 | 3.58e6 | 4.01e6
Past1 | DRSC16784 | 3.55e6 | 4.01e6
CG10907 | DRSC09804 | 3.76e6 | 4.29e6
Srg3 | DRSC08984 | 3.44e6 | 3.93e6
Srg3 | DRSC10178 | 3.73e6 | 4.33e6
Dpp10 | DRSC00942 | 3.41e6 | 3.82e6
Dpp10 | DRSC02139 | 3.59e6 | 4.09e6
CG34265 | DRSC08030 | 3.45e6 | 4.02e6
Ppm1 | DRSC08260 | 3.55e6 | 3.98e6
Prosbeta5R2 | DRSC01617 | 3.55e6 | 4.08e6
rno | DRSC08584 | 3.61e6 | 4.13e6
CG12483 | DRSC08278 | 3.79e6 | 4.18e6
HDAC3 | DRSC12352 | 3.54e6 | 4.15e6
obst-J | DRSC10821 | 3.67e6 | 4.21e6
IRSp53 | DRSC10891 | 3.48e6 | 3.86e6
RpL3 | DRSC16834 | 2.98e6 | 3.73e6
CG7443 | DRSC16244 | 3.59e6 | 3.94e6
Cln7 | DRSC11005 | 3.63e6 | 4.18e6
HERC2 | DRSC20566 | 3.53e6 | 4.03e6
CG34334 | DRSC20643 | 3.73e6 | 4.29e6
Vha13 | DRSC16895 | 3.42e6 | 3.94e6
abs | DRSC12372 | 3.45e6 | 3.94e6
CG9308 | DRSC04539 | 3.50e6 | 3.96e6
CG1806 | DRSC19787 | 3.39e6 | 4.03e6
Rrp42 | DRSC07161 | 3.60e6 | 4.03e6
CG15256 | DRSC01940 | 3.54e6 | 3.97e6
dysf | DRSC14529 | 3.50e6 | 3.91e6
dysf | DRSC14895 | 3.65e6 | 4.20e6
dysf | DRSC14896 | 3.53e6 | 3.95e6
dysf | DRSC14897 | 2.93e6 | 3.60e6
Grip128 | DRSC20167 | 3.65e6 | 4.01e6
Nup62 | DRSC06970 | 3.18e6 | 3.71e6
baz | DRSC20309 | 3.55e6 | 4.09e6
CG18269 | DRSC02660 | 3.47e6 | 3.97e6
CG7523 | DRSC16254 | 3.63e6 | 4.11e6
Top1 | DRSC20295 | 3.44e6 | 3.97e6
Alp2 | DRSC04354 | 3.33e6 | 3.78e6
Ugt316A1 | DRSC10376 | 3.52e6 | 4.04e6
sff | DRSC10590 | 3.54e6 | 4.06e6
CG13877 + pyx | DRSC08347 | 3.67e6 | 4.20e6
smash | DRSC12139 | 3.39e6 | 3.91e6
smash | DRSC12239 | 3.47e6 | 3.91e6
fzr | DRSC18781 | 3.54e6 | 3.99e6
CG6689 | DRSC16095 | 3.45e6 | 3.92e6
CG15484 | DRSC02494 | 3.70e6 | 4.11e6
CG15484 | DRSC22836 | 3.34e6 | 3.89e6
CG12963 | DRSC06265 | 3.39e6 | 3.84e6
AIMP3 | DRSC04500 | 3.65e6 | 4.05e6
CG14220 | DRSC19577 | 3.45e6 | 3.94e6
Yod1 | DRSC10433 | 3.67e6 | 4.11e6
CG30096 | DRSC21744 | 3.32e6 | 3.81e6
Rdl | DRSC11264 | 3.54e6 | 3.96e6
CG4679 | DRSC06880 | 3.53e6 | 3.98e6
CG31637 | DRSC02270 | 3.57e6 | 4.24e6
CG31637 | DRSC03263 | 3.48e6 | 3.96e6
BomT3 | DRSC13537 | 3.62e6 | 4.10e6
BomT3 | DRSC15871 | 3.78e6 | 4.19e6
CG5921 | DRSC17431 | 3.60e6 | 4.05e6
CG5921 | DRSC18390 | 3.52e6 | 4.03e6
Mgat3 | DRSC01305 | 3.41e6 | 3.97e6
CG32820 + CG17450 + CG32819 | DRSC21803 | 3.58e6 | 4.02e6
CG32820 + CG17450 + CG32819 | DRSC22812 | 3.53e6 | 3.99e6
Oseg5 | DRSC03209 | 3.56e6 | 4.05e6
Cpr49Ah | DRSC07204 | 3.46e6 | 3.79e6
ncd | DRSC17012 | 3.36e6 | 3.83e6
snoRNA:Me28S-A982b + Uhg4 + snoRNA:Me28S-G3255a + 1 more | DRSC05143 | 3.67e6 | 4.25e6

Reformatted: entries from further up
{"gene knocked down": "CG1806", "amplicon": "DRSC19787", "mean viability with MMS": 3.39e6, "viability with MMS, replicate 1": 4.03e6}
{"gene knocked down": "Rrp42", "amplicon": "DRSC07161", "mean viability with MMS": 3.60e6, "viability with MMS, replicate 1": 4.03e6}
{"gene knocked down": "CG15256", "amplicon": "DRSC01940", "mean viability with MMS": 3.54e6, "viability with MMS, replicate 1": 3.97e6}
{"gene knocked down": "dysf", "amplicon": "DRSC14529", "mean viability with MMS": 3.50e6, "viability with MMS, replicate 1": 3.91e6}
{"gene knocked down": "dysf", "amplicon": "DRSC14895", "mean viability with MMS": 3.65e6, "viability with MMS, replicate 1": 4.20e6}
{"gene knocked down": "dysf", "amplicon": "DRSC14896", "mean viability with MMS": 3.53e6, "viability with MMS, replicate 1": 3.95e6}
